# Assay results reported in patent publication US20100222548A1 (priority 2006, published 2010).
# Experiment: general procedure: solution-phase peptide synthesis
Substance,step yield (late stage modification step),step yield (coupling step)
N-[(Benzyloxy)carbonyl]glycyl-N-isobutylglycylglycyl-N-isobutylglycylglycine,96%,
N-[(Benzyloxy)carbonyl]glycyl-N-isobutylglycylglycyl-N-isobutylglycylglycine ethyl ester,,67%
N-[(Benzyloxy)carbonyl]glycyl-N-isobutylglycylglycyl-N-isobutylglycylglycyl-N-isobutylglycylglycine,85%,
N-[(Benzyloxy)carbonyl]glycyl-N-isobutylglycylglycyl-N-isobutylglycylglycyl-N-isobutylglycylglycyl-N-isobutylglycylglycine,94%,
N-[(Benzyloxy)carbonyl]glycyl-N-isobutylglycylglycyl-N-isobutylglycylglycyl-N-isobutylglycylglycyl-N-isobutylglycylglycine ethyl ester,,52%
